Consider one substance from PMC4074974.

Chains of the proteins cited; added tags and fusions are not shown.
UniProt P35226: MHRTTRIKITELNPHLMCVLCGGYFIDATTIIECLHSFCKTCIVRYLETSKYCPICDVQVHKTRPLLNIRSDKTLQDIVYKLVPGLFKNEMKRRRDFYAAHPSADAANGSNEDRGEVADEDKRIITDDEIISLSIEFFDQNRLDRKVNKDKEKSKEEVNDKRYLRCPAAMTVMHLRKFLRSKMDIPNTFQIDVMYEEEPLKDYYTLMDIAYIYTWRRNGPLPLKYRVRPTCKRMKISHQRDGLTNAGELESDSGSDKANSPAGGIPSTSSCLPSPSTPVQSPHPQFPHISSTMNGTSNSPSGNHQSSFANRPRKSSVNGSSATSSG
UniProt Q9UQR0: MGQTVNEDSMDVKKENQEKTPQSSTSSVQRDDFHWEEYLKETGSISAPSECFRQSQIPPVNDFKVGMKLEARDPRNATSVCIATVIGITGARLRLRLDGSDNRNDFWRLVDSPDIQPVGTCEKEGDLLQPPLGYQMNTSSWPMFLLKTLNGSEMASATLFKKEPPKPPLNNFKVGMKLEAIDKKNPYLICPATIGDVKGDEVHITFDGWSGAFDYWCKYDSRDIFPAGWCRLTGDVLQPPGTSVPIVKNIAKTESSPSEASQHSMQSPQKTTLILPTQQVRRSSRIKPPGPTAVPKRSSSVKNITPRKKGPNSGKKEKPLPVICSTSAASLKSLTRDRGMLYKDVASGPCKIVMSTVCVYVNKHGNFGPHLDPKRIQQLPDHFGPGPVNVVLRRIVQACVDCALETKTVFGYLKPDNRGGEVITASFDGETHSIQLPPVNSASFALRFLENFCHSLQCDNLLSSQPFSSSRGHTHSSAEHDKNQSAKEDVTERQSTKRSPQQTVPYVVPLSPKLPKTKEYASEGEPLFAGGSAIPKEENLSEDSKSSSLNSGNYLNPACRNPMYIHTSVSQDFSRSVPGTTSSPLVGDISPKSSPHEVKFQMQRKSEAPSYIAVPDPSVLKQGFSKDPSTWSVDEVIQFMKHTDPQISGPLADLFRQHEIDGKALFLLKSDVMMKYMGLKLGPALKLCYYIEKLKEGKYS

This test concerns the target BMI1 (human (endogenous in 293T-REx and HeLa)) (UniProt P35226). Briefly: co-IP; IP of endogenous BMI1 from the chromatin fraction of HeLa cells, blot for SCML2.

Results are given in words; binding and its absence hold for the method and conditions named. Binding seen in cells or lysates may run through a third protein. Some binding calls cover weakened binding; strength is not graded here.

Turning to “SCML2A (endogenous, chromatin fraction of HeLa cells) (from UniProt Q9UQR0 1-700)”, the binding entry is recorded as “binds”.
